Assay results taken from PMC12368045.

Target: mNedd4-2-GFP (short isoform of mouse Nedd4-2, lacking the C2 domain) (mouse)
Assay: affinity purification with mass spectrometry; GFP-Trap magnetic agarose on lysates of CCD cells transfected with mNedd4-2-GFP or pEGFP-N1 control; MG132 and CQ for 4 h before lysis; 150 mM NaCl, 20 mM Tris pH 7.5, 1% Triton X-100; 4 °C, 3 h; LC-MS/MS, three replicates

B1: phospholipid scramblase 1 (PLSCR1), endogenous in CCD cells (protein, UniProt Q9JJ00 1-328)
chain: MENHSKQTEAPHPGTYMPAGYPPPYPPAAFQGPSDHAAYPIPQAGYQGPPGPYPGPQPGYPVPPGGYAGGGPSGFPVQNQPAYNHPGGPGGTPWMPAPPPPLNCPPGLEYLAQIDQLLVHQQIELLEVLTGFETNNKYEIKNSLGQRVYFAVEDTDCCTRNCCGASRPFTLRILDNLGREVMTLERPLRCSSCCFPCCLQEIEIQAPPGVPVGYVTQTWHPCLPKFTLQNEKKQDVLKVVGPCVVCSCCSDIDFELKSLDEESVVGKISKQWSGFVREAFTDADNFGIQFPLDLDVKMKAVMLGACFLIDFMFFERTGNEEQRSGAWQ
  binding: binds

These are yes or no findings as the source states them, for the method shown. Binding seen in cells or lysates may run through a third protein. A yes stands for co-enrichment or nearness to the bait. Other partners may have been found.
